Publication PMC4621449
Results are given in words; binding and its absence hold for the method and conditions named. Binding seen in cells or lysates may run through a third protein. Some binding calls cover weakened binding; strength is not graded here. Sequences can lack the tags named with a protein.

Sequences of proteins named here, by UniProt entry; tags and fusion partners are left off.
UniProt Q8ECH7: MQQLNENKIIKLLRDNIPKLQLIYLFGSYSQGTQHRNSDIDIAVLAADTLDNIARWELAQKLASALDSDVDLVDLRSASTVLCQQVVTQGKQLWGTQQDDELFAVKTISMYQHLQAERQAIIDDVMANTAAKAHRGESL

Target: T1, Toxin SO_3166 with a C-terminal hexahistidine tag (Shewanella oneidensis) (UniProt Q8ECH6)
T1 sequence: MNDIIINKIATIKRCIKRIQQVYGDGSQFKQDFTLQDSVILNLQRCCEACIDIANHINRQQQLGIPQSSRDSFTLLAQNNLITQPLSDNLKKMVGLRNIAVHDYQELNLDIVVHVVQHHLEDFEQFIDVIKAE
Test: pull-down; SO_3166-CHis and untagged SO_3165 coexpressed in E. coli BL21 (DE3); lysate in 50 mM monosodium phosphate pH 8.0, 300 mM NaCl, 5 mM imidazole; Ni-NTA agarose beads; Tricine-SDS-PAGE; co-purified band identified by mass spectrometry

Substance: Untagged antitoxin SO_3165 (from UniProt Q8ECH7 1-139)
- binding: binds
